PMC5016092

Amino acid sequences for entries named in this document (tags omitted). A change or cut given only in a name is not applied to a line headed by its entry.
UniProt Q9BSF4: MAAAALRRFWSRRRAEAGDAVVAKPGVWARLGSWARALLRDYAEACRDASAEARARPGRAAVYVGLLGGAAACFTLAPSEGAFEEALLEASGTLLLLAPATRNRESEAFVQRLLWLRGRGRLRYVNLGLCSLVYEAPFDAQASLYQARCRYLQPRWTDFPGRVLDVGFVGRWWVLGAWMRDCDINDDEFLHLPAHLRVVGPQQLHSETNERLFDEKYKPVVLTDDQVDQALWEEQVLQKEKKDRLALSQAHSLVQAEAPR

B1: hTim9 (protein, UniProt Q9Y5J7 1-89)
chain: MAAQIPESDQIKQFKEFLGTYNKLTETCFLDCVKDFTTREVKPEETTCSEHCLQKYLKMTQRISMRFQEYHIQQNEALAAKAGLLGQPR
B2: hTom40 (protein, UniProt O96008 1-361)
chain: MGNVLAASSPPAGPPPPPAPALVGLPPPPPSPPGFTLPPLGGSLGAGTSTSRSSERTPGAATASASGAAEDGACGCLPNPGTFEECHRKCKELFPIQMEGVKLTVNKGLSNHFQVNHTVALSTIGESNYHFGVTYVGTKQLSPTEAFPVLVGDMDNSGSLNAQVIHQLGPGLRSKMAIQTQQSKFVNWQVDGEYRGSDFTAAVTLGNPDVLVGSGILVAHYLQSITPCLALGGELVYHRRPGEEGTVMSLAGKYTLNNWLATVTLGQAGMHATYYHKASDQLQVGVEFEASTRMQDTSVSFGYQLDLPKANLLFKGSVDSNWIVGATLEKKLPPLPLTLALGAFLNHRKNKFQCGFGLTIG
B3: [^35S]-hTom40 (protein, UniProt O96008 1-361)
chain: B2 chain
modifications: [35S]-methionine/cysteine label
B4: [^35S]-hTim9 (protein, UniProt Q9Y5J7 1-89)
chain: B1 chain
modifications: [35S]-methionine/cysteine label
B5: [^35S]-hTim22 (protein, UniProt Q9Y584 1-194)
chain: MAAAAPNAGGSAPETAGSAEAPLQYSLLLQYLVGDKRQPRLLEPGSLGGIPSPAKSEEQKMIEKAMESCAFKAALACVGGFVLGGAFGVFTAGIDTNVGFDPKDPYRTPTAKEVLKDMGQRGMSYAKNFAIVGAMFSCTECLIESYRGTSDWKNSVISGCITGGAIGFRAGLKAGAIGCGGFAAFSAAIDYYLR
modifications: [35S]-methionine/cysteine label
B6: hTim22 (protein, UniProt Q9Y584 1-194)
chain: B5 chain

Tests used:
Tim29^3XFLAG (human) [1] = biological target: Tim29^3XFLAG (human) (UniProt Q9BSF4); test: cross-linking; isolated mitochondria with 0.2 mM DSP 1 hr 4°C, quenched with Tris, solubilised in 1% SDS and boiled, diluted in Triton X-100 buffer, anti-FLAG resin, cross-links cleaved in Laemmli buffer, immunoblotting
Tim29^3XFLAG (human) [2] = biological target: Tim29^3XFLAG (human) (UniProt Q9BSF4); test: co-IP; mitochondria solubilised in 0.5% digitonin-containing buffer, anti-FLAG resin, SDS-PAGE and immunoblotting (Figure 8A, C)
Tim29^3XFLAG (human) [3] = biological target: Tim29^3XFLAG (human) (UniProt Q9BSF4); test: co-IP; [35S]-labelled proteins imported for 60 min into mitochondria of control or Tim29^3XFLAG cells, solubilised in 0.5% digitonin-containing buffer, anti-FLAG resin, SDS-PAGE and autoradiography
Tim29^3XFLAG (human) [4] = biological target: Tim29^3XFLAG (human) (UniProt Q9BSF4); test: native gel or EMSA; antibody shift: [35S]-hTim22 imported at 37°C into isolated mitochondria, solubilised in 1% digitonin, incubated with anti-FLAG or anti-SDHA antibodies 30 min on ice, BN-PAGE and autoradiography
Tim29^3XFLAG (human) [5] = biological target: Tim29^3XFLAG (human) (UniProt Q9BSF4); test: co-IP; 0.5-1 mg mitochondria solubilised in digitonin-containing buffer, anti-FLAG resin, SDS-PAGE and immunoblotting (Figure 3C, D)

Binder	binding (Tim29^3XFLAG (human) [1])	binding (Tim29^3XFLAG (human) [2])	binding (Tim29^3XFLAG (human) [3])	also measured
B1	binds	binds	–	–
B2	binds	binds	–	–
B3	–	–	binds	–
B4	–	–	binds	–
B5	–	–	–	binding (Tim29^3XFLAG (human) [4]): binds
B6	–	–	–	binding (Tim29^3XFLAG (human) [5]): binds

These are yes or no findings as the source states them, for the method shown. Binding can be weak; no strength is given. For some assays here: In cells and extracts the contact can be indirect.
